The values that follow come from patent US20200317744A1 (published 2020).

No constants are given. Whether binding was seen depends on the method and setting. For some of these results: Binding can be weak; no strength is given.

B1: G1_neo2_44 (designed binder)
chain: STKKIQLQLEHALLDVQMALNRSPEPNESLNRMITWLQSWISTGKIDLDNAQEMCKEAEKIRKEMEKRGIDVRDLISNICVILLELS
B2: G1_neo2_35 (designed binder)
chain: STKKWQLQAEHALLDWQMALNKSPEPNENLNRAITAAQSWISTGKIDCDKAEDIRRNSDQARREAEKRGIDVRDLISNAQVILLEAC
B3: G1_neo2_36 (designed binder)
chain: STKKLQLQAEHFLLDVQMILNESPEPNEELNRAITDAQSWISTGKIDLDRAEELARNLEKVRDEALKRGIDVRDLVSNAKVIALELK
B4: G1_neo2_38 (designed binder)
chain: STKKLQLQAEHFLLDVQMILNESPEPNEELNRAITDAQSCISTGKCDLDRAEELARNLEKVRDEALKRGIDVRDLVSNAKVIALELK
B5: G1_neo2_39 (designed binder)
chain: STKKLQLQAEHFLLDVQMILNESPEPNEELNRAITDAQSWISTGKIDLDRAEELCRNLEKVRDEALKRGIDVRDLVSNACVIALELK
B6: G1_neo2_37 (designed binder)
chain: STKKLQLQAEHFLLDVQMILNESPEPNEELNRCITDAQSWISTGKIDLDRAEECARNLEKVRDEALKRGIDVRDLVSNAKVIALELK
B7: G1_neo2_40 (designed binder)
chain: STKKLQLQAEHALLDAQMMLNRSPEPNEKLNRIITTMQSWISTGKIDLDGAKELAKEVEELRQEAEKRGIDVRDLASNLKVILLELA
B8: G1_neo2_41 (designed binder)
chain: STKKLQLQAEHALLDAQMMLNRSPEPNEKLNRIITTMQSCISTGKCDLDGAKELAKEVEELRQEAEKRGIDVRDLASNLKVILLELA
B9: G1_neo2_42 (designed binder)
chain: STKKIQLQLEHALLDVQMALNRSPEPNESLNRMITWLQSWISTGKIDLDNAQEMAKEAEKIRKEMEKRGIDVRDLISNIIVILLELS
B10: G1_neo2_43 (designed binder)
chain: STKKIQLQLEHALLDVQMALNRSPEPNESLNRMITWLQSCISTGKCDLDNAQEMAKEAEKIRKEMEKRGIDVRDLISNIIVILLELS

The target of one test is fluorescently labeled chimeric IL-2Rβγc (hIL-2Rβγc) (human). Briefly: yeast display, flow cytometry. On the technique in general: In flow cytometry, cells or beads pass a laser one at a time.
As to B1, the binding entry is recorded as “no binding (tested: 2 nM)”.

Regarding B2, the binding entry is listed as “no binding (tested: 2 nM)”.

For the next test the target is unchanged. The test can be described thus: yeast display, flow cytometry, 2 nM hIL-2Rβγc.
For B3, the binding result is reported as “binds”.

With B4, the binding entry is “binds”.

Regarding B5, the binding result is “binds”.

On to B6, for which the binding entry is given as “binds”.

On to B7, for which the binding entry is given as “binds”.

For B8, the binding result was “binds”.

As to B9, the binding entry was “binds”.

In the case of B10, the binding entry is reported as “binds”.
